The target in this assay is ThTrx5 fusion protein containing the glutathione-S-transferase (GST) tag (Tamarix hispida). Briefly: affinity purification with mass spectrometry; ThTrx5 GST fusion protein bound to a nickel column (nickel agarose resin beads); about 50 ug total protein of wild-type or ThTrx5 transgenic Arabidopsis leaves (150 mmol/L NaCl, 3 h) incubated 4 h at 4 °C; washed 5 times; buffer 50 mM Tris, 100 mM NaCl, 0.1% Tween-20, 1 mM PMSF, 1 mM DTT, 500 mM imidazole; differential SDS-PAGE bands excised, PMF and MS/MS, SwissProt 57.15; only the target purified.

Results are given in words; binding and its absence hold for the method and conditions named. Binding seen in cells or lysates may run through a third protein. A yes stands for co-enrichment or nearness to the bait. Other partners may have been found.

B1: 2-CYS PEROXIREDOXIN BAS1-LIKE PROTEIN (enzyme, UniProt Q9C5R8 73-273)
chain: KAQADDLPLVGNKAPDFEAEAVFDQEFIKVKLSEYIGKKYVILFFYPLDFTFVCPTEITAFSDRYEEFEKLNTEVLGVSVDSVFSHLAWVQTDRKSGGLGDLNYPLVSDITKSISKSFGVLIPDQGIALRGLFIIDKEGVIQHSTINNLGIGRSVDETMRTLQALQYVQENPDEVCPAGWKPGEKSMKPDPKLSKEYFSAI
As to B1, the binding result is recorded as “binds”.

B2: CATALASE 3 (enzyme, UniProt Q42547 1-492)
chain: MDPYKYRPSSAYNAPFYTTNGGAPVSNNISSLTIGERGPVLLEDYHLIEKVANFTRERIPERVVHARGISAKGFFEVTHDISNLTCADFLRAPGVQTPVIVRFSTVVHERASPETMRDIRGFAVKFYTREGNFDLVGNNTPVFFIRDGIQFPDVVHALKPNPKTNIQEYWRILDYMSHLPESLLTWCWMFDDVGIPQDYRHMEGFGVHTYTLIAKSGKVLFVKFHWKPTCGIKNLTDEEAKVVGGANHSHATKDLHDAIASGNYPEWKLFIQTMDPADEDKFDFDPLDVTKIWPEDILPLQPVGRLVLNRTIDNFFNETEQLAFNPGLVVPGIYYSDDKLLQCRIFAYGDTQRHRLGPNYLQLPVNAPKCAHHNNHHEGFMNFMHRDEEINYYPSKFDPVRCAEKVPTPTNSYTGIRTKCVIKKENNFKQAGDRYRSWAPDRQDRFVKRWVEILSEPRLTHEIRGIWISYWSQADRSLGQKLASRLNVRPSI
As to B2, the binding entry was “binds”.

(Values after paper PMC7037472.)
